Experimental data: article PMC12500908
No constants are given. Whether binding was seen depends on the method and setting. In cells and extracts the contact can be indirect. Here binding means that the protein was enriched with, or labelled near, the bait; the list need not be complete.

Chains of the proteins cited; added tags and fusions are not shown.
UniProt Q86U44: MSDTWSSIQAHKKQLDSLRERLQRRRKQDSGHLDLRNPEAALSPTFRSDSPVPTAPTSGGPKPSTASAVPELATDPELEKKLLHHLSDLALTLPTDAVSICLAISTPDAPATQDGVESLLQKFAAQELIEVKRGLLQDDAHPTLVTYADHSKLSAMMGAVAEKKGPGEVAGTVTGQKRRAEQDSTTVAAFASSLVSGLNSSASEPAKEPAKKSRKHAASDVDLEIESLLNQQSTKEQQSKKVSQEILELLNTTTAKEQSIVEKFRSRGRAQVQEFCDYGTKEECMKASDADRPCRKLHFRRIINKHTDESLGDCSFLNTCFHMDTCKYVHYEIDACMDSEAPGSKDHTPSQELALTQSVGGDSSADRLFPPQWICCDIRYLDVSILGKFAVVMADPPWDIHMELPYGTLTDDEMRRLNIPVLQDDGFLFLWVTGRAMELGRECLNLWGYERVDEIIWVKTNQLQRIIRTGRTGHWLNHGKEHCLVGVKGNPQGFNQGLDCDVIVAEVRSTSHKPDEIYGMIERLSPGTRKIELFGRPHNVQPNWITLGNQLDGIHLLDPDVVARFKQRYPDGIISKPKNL
UniProt Q15172: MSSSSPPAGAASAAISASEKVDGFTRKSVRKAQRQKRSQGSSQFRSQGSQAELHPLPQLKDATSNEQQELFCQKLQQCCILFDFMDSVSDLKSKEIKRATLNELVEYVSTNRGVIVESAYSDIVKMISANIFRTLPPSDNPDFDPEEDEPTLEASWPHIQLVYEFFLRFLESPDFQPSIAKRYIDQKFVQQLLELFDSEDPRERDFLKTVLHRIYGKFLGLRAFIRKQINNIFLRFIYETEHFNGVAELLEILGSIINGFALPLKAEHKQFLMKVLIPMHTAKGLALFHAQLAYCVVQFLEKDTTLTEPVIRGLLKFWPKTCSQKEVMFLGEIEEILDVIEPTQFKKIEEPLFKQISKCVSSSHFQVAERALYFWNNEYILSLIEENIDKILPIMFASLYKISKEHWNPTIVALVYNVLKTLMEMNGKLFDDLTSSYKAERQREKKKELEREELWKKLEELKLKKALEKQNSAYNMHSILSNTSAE

Target: methyltransferase-like 3 (METTL3), overexpressed in 293T cells (UniProt Q86U44)
Assay: affinity purification with mass spectrometry; Co-IP followed by mass spectrometry (Co-IP/MS) of protein extracts of METTL3-overexpressing 293T cells

binding: binds
Substance: protein phosphatase 2A (PP2A) B56α subunit, in 293T cells (from UniProt Q15172 1-486)
